Source: paper PMC6925144, “A prospective compound screening contest identified broader inhibitors for Sirtuin 1” (Scientific Reports, 2019)
The full ranking holds about 3,200 compounds; the median of “TSA(with NAD+) / Primary screening (TSA) / delta Tm (K)” is about -0.04, and the highest 2% start at about 0.37. The list shows a part of the results.

Sequences of proteins named here, by UniProt entry; tags and fusion partners are left off. Residues count along the entry.
UniProt Q96EB6, 2-747 limits assumed: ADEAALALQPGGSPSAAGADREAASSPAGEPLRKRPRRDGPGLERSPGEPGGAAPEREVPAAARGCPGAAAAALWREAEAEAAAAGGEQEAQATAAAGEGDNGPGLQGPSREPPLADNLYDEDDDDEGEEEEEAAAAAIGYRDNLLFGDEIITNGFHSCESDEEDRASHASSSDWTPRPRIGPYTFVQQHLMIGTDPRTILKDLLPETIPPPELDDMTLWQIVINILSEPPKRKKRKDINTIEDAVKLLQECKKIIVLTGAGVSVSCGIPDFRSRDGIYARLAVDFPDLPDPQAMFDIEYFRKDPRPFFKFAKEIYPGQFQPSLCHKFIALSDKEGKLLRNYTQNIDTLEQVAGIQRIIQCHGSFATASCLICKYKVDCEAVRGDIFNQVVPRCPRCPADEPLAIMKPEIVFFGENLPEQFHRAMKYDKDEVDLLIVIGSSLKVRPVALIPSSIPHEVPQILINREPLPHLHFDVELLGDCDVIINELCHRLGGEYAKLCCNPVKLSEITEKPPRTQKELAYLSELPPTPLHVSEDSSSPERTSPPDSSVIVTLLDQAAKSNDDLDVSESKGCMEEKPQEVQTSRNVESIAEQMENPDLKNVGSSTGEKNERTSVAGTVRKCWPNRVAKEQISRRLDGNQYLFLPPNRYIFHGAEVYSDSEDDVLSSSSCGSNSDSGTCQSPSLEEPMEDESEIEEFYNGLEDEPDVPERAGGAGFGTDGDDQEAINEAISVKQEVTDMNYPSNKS

The compounds below were run against NAD-dependent deacetylase Sirtuin 1 (human, UniProt Q96EB6) (assay: primary screen, delta tm). Conditions: 10 µM.
Design: single well (n = 1, as 'the same TSA')

| SMILES | TSA(with NAD+) / Primary screening (TSA) / delta Tm (K) |
| --- | --- |
| Cc1nn2cccnc2c1C(=O)NCc1ccc(-c2nnn[nH]2)cc1 | -0.06 K |
| CCC(=O)CN | -0.06 K |
| COc1ccc(C(=O)C2=C(O)C(=O)N(CCCN3CCOCC3)C2c2ccc(C)cc2)cc1C (stereo not shown) | -0.11 K |
| CC(C)CCCN | -0.29 K |
| Cc1cc(C2CCN(c3ncnc4sc5c(c34)CCC5)CC2)[nH]n1 | -0.24 K |
| C=CCN(C)C(=O)NC(C)c1ccc(NC(=O)c2ccncc2)cc1 (stereo not shown) | -0.15 K |
| NC(=O)C1CCN(C(=O)c2ccc3[nH]c4c(c3c2)CCCC4)CC1 | 0.01 K |
| CC(=O)Nc1ccc(NC(=O)c2cccc(S(=O)(=O)N(C)c3ccc(C)cc3)c2)cc1 | -0.04 K |
| O=C(COc1ccccc1C(=O)Nc1ccc(S(=O)(=O)Nc2nccs2)cc1)Nc1cccc(C(F)(F)F)c1 | 0.82 K |
| COc1ccc(N(C)S(=O)(=O)c2cccc(C(=O)Nc3cccc(C#N)c3)c2)cc1 | 0.35 K |
| O=C(Nc1cc(S(=O)(=O)N2CCOCC2)ccc1Oc1ccccc1)C1=COCCO1 | -0.03 K |
| NC(=O)COC(=O)C1CCCN(C2=NS(=O)(=O)c3ccccc32)C1 (stereo not shown) | -0.09 K |
| Cc1cc(-c2csc(NC(=O)c3nn(C)c(=O)c4ccccc34)n2)c(C)n1CCc1ccccc1 | -0.14 K |
| COC(=O)c1cn(CC(=O)N2CCc3ccc(O)cc3C2)c2ccccc12 | -0.16 K |
| O=C1CC(C(=O)Nc2ccc(-c3csc(N4CCOCC4)n3)cc2)c2ccc(F)cc2N1 (stereo not shown) | -0.23 K |
| CCCCC(N)CN (stereo not shown) | -0.28 K |
| CC(C)n1nc(C(=O)Nc2cccc(S(=O)(=O)NCc3ccco3)c2)c2ccccc2c1=O | -0.01 K |
| Cc1cc2oc(=O)cc(CN3CCC(NS(C)(=O)=O)CC3)c2cc1C | 0.03 K |
| CCN(C(=O)CSc1nnc(NC2CCCCC2)s1)C1CCS(=O)(=O)C1 (stereo not shown) | -0.11 K |
| COc1ccc(C2C(C(=O)c3ccc(F)cc3)=C(O)C(=O)N2CCCN2CCOCC2)cc1 (stereo not shown) | -0.01 K |
| CC(NC(=O)c1ccc2c(c1)CCC(=O)N2)c1ccc2c(c1)CC(=O)N2 (stereo not shown) | -0.06 K |
| NC(=O)c1cnc(N2CCCC(c3nnc[nH]3)C2)c(Cl)c1 (stereo not shown) | 0.25 K |
| Cc1cc(C=C2C(=O)NC(=S)NC2=O)c(C)n1-c1ccc(F)cc1 | -0.48 K |
| O=C(O)[C@@H](O)[C@H](O)C(=O)O | -0.06 K |
| O=C(Cc1cccc2ccccc12)NCCN/C(O)=C1\N=CC=CC1=O | -0.01 K |

Three entries out of the list, sorted by formula weight, ascending.

| SMILES | TSA(with NAD+) / Primary screening (TSA) / delta Tm (K) |
| --- | --- |
| CCC(=O)CN | -0.06 K |
| CCN(C(=O)CSc1nnc(NC2CCCCC2)s1)C1CCS(=O)(=O)C1 (stereo not shown) | -0.11 K |
| COc1ccc(C(=O)C2=C(O)C(=O)N(CCCN3CCOCC3)C2c2ccc(C)cc2)cc1C (stereo not shown) | -0.11 K |
